Assay results from PubChem BioAssay AID1347076 (National Center for Advancing Translational Sciences (NCATS), 2019).
The whole screen tested about 400,000 compounds, of which about 13,000 (3.2%) were called active. The shares of active, inactive and inconclusive entries below differ from those in the screen. Calls come from the whole dose curve; as a rule, active = well fitted cell-killing curve with a large enough effect; inconclusive = small, poorly fitted or top-dose-only effect, or effect the other way; inactive = flat fitted curve, though single readings scatter. Potencies of inconclusive entries are doubtful fits and often do not repeat.

Assay: qHTS assay for MDR1-selective chemotherapeutics: Primary screen using the drug-selected MDR subline cells KB-V1; note: nearly all actives have a fitted effect of over 60% in size
Details: KB-V1 MDR cells viability, CellTiter-Glo, 72 h; series mostly up to 46.1 µM
Method in brief: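 KB-V1 cells (P-gp-expressing MDR subline of KB-3-1) in phenol-red-free DMEM with 10% FBS were exposed to library compounds over a concentration series for 72 h at 37 degrees C. Viability read by CellTiter-Glo luminescence; concentration-effect curves fitted after normalization.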
Potency is the fitted concentration of half-maximal effect.

For `COc1ccc(-c2ccc(SCC(=O)c3cccs3)nn2)cc1`, which Potency is on record?
The Potency was active: 16.4 µM.

Which Potency does the source give for `CC(C)C[C@@H](CN1CCCC1CN1C(=S)NC[C@@H]1Cc1ccccc1)N1C[C@H](Cc2ccc(O)cc2)N(CCc2ccccc2)C1=S` (some centres undefined) here?
Its Potency is inconclusive: 5.8 µM [cytotoxic, full curve, poor fit].

Which Potency does the source give for `CCc1ccc(S(=O)(=O)c2nnn3c2nc(N(C)Cc2ccccc2)c2cc(Cl)ccc23)cc1` here?
The Potency was inconclusive: 29.1 µM [rising, single point].

With `Cc1c(Cc2ccccc2)c(=O)oc2c(CN(C)C)c(O)c(Cl)cc12` as the compound, how does the Potency read?
The Potency was active: 9.2 µM.

With `O=S(=O)(c1ccc(NC(=S)NN=Cc2ccccc2O)cc1)N1CCCCC1` as the compound, how does the Potency read?
Its Potency is active: 7.31 µM.

With `CC(C)(C)C1CCSC2=NCCC[C@]2(c2ccccc2)C1` (some centres undefined) as the compound, how does the Potency read?
Its Potency is “inactive”.

With `COc1cc(C2NC(=O)NC(C)=C2C(=O)OCc2ccc(C)cc2)cc(OC)c1O` (centres undefined) as the compound, how does the Potency read?
Its Potency is “inactive”.

For `COc1ccc(Br)c(C(=O)OCC(=O)NC2CC2)c1`, which Potency is on record?
The Potency was inconclusive: 32.6 µM [rising, single point].

For `CC(C)(C)C(=O)COC(=O)C1CC(=O)N(c2ccccc2)C1` (centres undefined), which Potency is on record?
The Potency was inconclusive: 23.1 µM [rising, partial curve, poor fit].

For `CCCCCC(=O)NC(=S)NNC(=O)c1ccc([N+](=O)[O-])cc1`, which Potency is on record?
Its Potency is inconclusive: 2.31 µM [cytotoxic, full curve].

For `O=C1NC(=Nc2ccccc2Cl)S/C1=C\c1cc([N+](=O)[O-])ccc1O`, which Potency is on record?
Its Potency is “inactive”.

Which Potency does the source give for `Cc1cccc(N(CC(=O)NCc2ccco2)C(=O)CCC(=O)Nc2ccccn2)c1C` here?
Its Potency is inconclusive: 0.0366 µM [cytotoxic, full curve].

Which Potency does the source give for `COc1ccc(C(=O)NN=C(Cc2ccccc2)Cc2ccccc2)cc1OC` here?
The Potency was inconclusive: 23.1 µM [cytotoxic, partial curve, poor fit].

Which Potency does the source give for `COc1cc(/C=C(/C#N)c2nc(-c3cc4ccccc4oc3=O)cs2)ccc1O` here?
Its Potency is “inactive”.

With `Cc1sc2nc(C(C)C)nc(SCC(=O)N3c4ccccc4CC3C)c2c1C` (centres undefined) as the compound, how does the Potency read?
The Potency was active: 18.4 µM.

Which Potency does the source give for `COc1cc(NC(=S)NCCC(c2ccccc2)c2ccccc2)c(OC)cc1Cl` here?
The Potency was inconclusive: 16.4 µM [cytotoxic, single point].

For `CC(=O)Nc1cccc(NC(=O)CSc2nnc3ccc(-c4ccccn4)nn23)c1`, which Potency is on record?
Its Potency is inconclusive: 13 µM [rising, partial curve].

Which Potency does the source give for `Cc1c(Cl)cccc1NC(=O)Nc1c[nH]c(=O)[nH]c1=O` here?
Its Potency is “inactive”.

For `CCCCCCn1c(CN2CCN(C(=O)OCC)CC2)nc2c1c(=O)n(C)c(=O)n2C`, which Potency is on record?
The Potency was inconclusive: 16.4 µM [cytotoxic, partial curve, poor fit].
